# Test results reported in the supplement of paper PMC9433722.
# Structures can show the parent of a compound that is named as a salt. The list shows a part of the results. Many values rest on one well or one pass, so single values are uncertain.
# Key:
# [1] = test system: Saos-2; assay: cell viability (CCK-8) relative to DMSO control (% of control); higher = less cytotoxic; conditions: 10 µM; 48 h
# [2] = test system: U2OS; assay: as above; conditions: 10 µM; 48 h
SMILES,cell viability [1],cell viability [2]
CC(=O)OCC(=O)[C@@]1(O)CC[C@H]2[C@@H]3CCC4=CC(=O)CC[C@]4(C)[C@H]3C(=O)C[C@@]21C [Cortisone Acetate],109,86
CN(C)c1nc(N(C)C)nc(N(C)C)n1 [Altretamine],62,110
COC(=O)N[C@H](C(=O)N[C@@H](Cc1ccccc1)[C@@H](O)CN(Cc1ccc(-c2ccccn2)cc1)NC(=O)[C@@H](NC(=O)OC)C(C)(C)C)C(C)(C)C [Atazanavir],59.2,107
O=C(O)COCCN1CCN(C(c2ccccc2)c2ccc(Cl)cc2)CC1 (stereo not drawn) [Cetirizine 2HCl],59,96.8
CN(C)CCCN1c2ccccc2Sc2ccc(Cl)cc21 [Chlorpromazine . Hydrochloride],29.4,72.7
CNC(=C[N+](=O)[O-])NCCSCc1ccc(CN(C)C)o1 [Ranitidine·HCl],67.4,104
O=C(O)c1cn(C2CC2)c2cc(N3CCNCC3)c(F)cc2c1=O [Ciprofloxacin],66.7,93.7
CCOC(=O)C1=C(COCCN)NC(C)=C(C(=O)OC)C1c1ccccc1Cl (stereo not drawn) [Amlodipine],55.3,111
CC(=O)O[C@H]1C(=O)[C@@]2(C)[C@H]([C@H](OC(=O)c3ccccc3)[C@]3(O)C[C@H](OC(=O)[C@H](O)[C@@H](NC(=O)c4ccccc4)c4ccccc4)C(C)=C1C3(C)C)[C@]1(OC(C)=O)CO[C@@H]1C[C@@H]2O [Paclitaxel],29.2,62.1
COc1ccc(Cl)cc1C(=O)NCCc1ccc(S(=O)(=O)NC(=O)NC2CCCCC2)cc1 [Glyburide],71.3,94.3
COc1cccc2c1C(=O)c1c(O)c3c(c(O)c1C2=O)C[C@@](O)(C(=O)CO)C[C@@H]3O[C@H]1C[C@H](N)[C@H](O)[C@H](C)O1 [Doxorubicin . HCl],27.9,28.5
Clc1cccc(Cl)c1NC1=NCCN1 [Clonidine . hydrochloride],61.4,119
CC(=O)Nc1ccc(O)cc1 [Acetaminophen],92.3,81.3
Cc1cn([C@H]2C=C[C@@H](CO)O2)c(=O)[nH]c1=O [Stavudine],106,107
O=C1[C@H](CC[C@H](O)c2ccc(F)cc2)[C@@H](c2ccc(O)cc2)N1c1ccc(F)cc1 [Ezetimibe],113,91.7
CN1CCN(CCCN2c3ccccc3Sc3ccc(C(F)(F)F)cc32)CC1 [Trifluoperazine . Dihydrochloride],54,106
Brc1c(NC2=NCCN2)ccc2nccnc12 [Brimonidine],113,115
COc1c(C)c2c(c(O)c1C/C=C(\C)CCC(=O)O)C(=O)OC2 [Mycophenolic Acid],44.9,62.4
C[C@@H]1O[C@@H]1P(=O)(O)O [Fosfomycin Calcium],111,102
CC[C@@H]1C(=O)OC[C@@H]1Cc1cncn1C [(+)-Pilocarpine . hydrochloride],61.8,116
N[C@@H](CC(=O)N1CCn2c(nnc2C(F)(F)F)C1)Cc1cc(F)c(F)cc1F [Sitagliptin Phosphate],107,105
O=C(c1ccc(OCCN2CCCCC2)cc1)c1c(-c2ccc(O)cc2)sc2cc(O)ccc12 [Raloxifene·HCl],55.4,105
Cc1onc(-c2ccccc2)c1C(=O)N[C@@H]1C(=O)N2[C@@H]1SC(C)(C)[C@@H]2C(=O)O [Oxacillin sodium salt monohydrate],68.8,94.2
CC=CC1=C(C(=O)O)N2C(=O)[C@@H](NC(=O)[C@H](N)c3ccc(O)cc3)[C@H]2SC1 [Cefprozil],109,93.4
Cc1cc(C2CCCCC2)n(O)c(=O)c1 [Ciclopirox],64.4,66
C[C@]12CC[C@@H]3c4ccc(O)cc4CC[C@H]3[C@@H]1CC[C@@H]2O [17β-Estradiol],70,114
O=C(O)c1cc(/N=N/c2ccc(S(=O)(=O)Nc3ccccn3)cc2)ccc1O [Sulfasalazine],69,112
CC1=C(CC(=O)O)c2cc(F)ccc2/C1=C\c1ccc([S+](C)[O-])cc1 (stereo not drawn) [Sulindac],63.7,91.8
COc1cc2nc(N(C)CCCNC(=O)C3CCCO3)nc(N)c2cc1OC (stereo not drawn) [Alfuzosin],66.4,112

# Full records, quoted from the list:
# O=C(O)c1cn(C2CC2)c2cc(N3CCNCC3)c(F)cc2c1=O [Ciprofloxacin] is listed as cell viability [1]: 66.7; cell viability [2]: 93.7
# COc1ccc(Cl)cc1C(=O)NCCc1ccc(S(=O)(=O)NC(=O)NC2CCCCC2)cc1 [Glyburide] is listed as cell viability [1]: 71.3; cell viability [2]: 94.3
